The values that follow come from the supplement of paper PMC3334620.

Whole data set: some 33,000 sequences, median “E-score (-0.5 to 0.5)” near -0.0059, cut for the highest 2% near 0.26. The list shows a part of the results.

The target in the test is T1, Cin5 (UniProt P40917).
T1 sequence: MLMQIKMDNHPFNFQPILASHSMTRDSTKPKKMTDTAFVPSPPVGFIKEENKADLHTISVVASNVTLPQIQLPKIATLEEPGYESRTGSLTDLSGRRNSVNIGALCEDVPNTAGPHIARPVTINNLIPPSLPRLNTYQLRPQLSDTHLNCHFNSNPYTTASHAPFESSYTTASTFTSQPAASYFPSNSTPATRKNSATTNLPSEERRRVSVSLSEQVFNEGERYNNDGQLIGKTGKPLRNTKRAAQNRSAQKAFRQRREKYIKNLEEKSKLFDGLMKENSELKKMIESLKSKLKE
The test is described as follows: PBM E-score (8-mer binding enrichment) (E-score (-0.5 to 0.5)); higher = stronger / more preferred TF binding. The settings on record: protein concentration: 100 nM; construct: GST-full length. Summed up: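 The E-score, a modified Wilcoxon-Mann-Whitney statistic, was computed by the Universal PBM Analysis Suite for every ungapped eight-base word pooled with its reverse complement. Scans behind it were normalised with masliner after bound GST-tagged yeast transcription factors were detected with fluorescent anti-GST. The proteins, at about 100-200 nM, had been applied to universal all-10-mer Agilent arrays made double-stranded by primer extension.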
Take CCACTGCC: the “PBM E-score” value was -0.0765. To CTCAAGAA belongs -0.091. The value for GGATGAAA was 0.112. To CATGGAAC belongs -0.133; to CTTCTAGC, -0.24.

On to GCATTAAA, for which the “PBM E-score” value is 0.0586. In the case of ATAACGCG, the “PBM E-score” value stood at 0.13. To AACGCAAA belongs 0.0702; to CGGCGTAC, -0.174; to ACTACTCG, 0.209. To GATAGCGC belongs 0.00176; to AGATGGCC, -0.16; to CCGAAGGC, -0.304. For the sequence ACAAAAAT, the “PBM E-score” value was 0.247. To AACACCAT belongs 0.0774; to ATCTTAGC, -0.0416. The value for AGAAGTGA was -0.0317; that for TCGACAGA was 0.0217. The value for CGCGACCC was -0.102. As for CAATTCTG, the “PBM E-score” value stood at 0.0455. The value for TGCTAAAA was -0.0719; that for GCTGAATA was 0.223. For AATGGTCA, the “PBM E-score” value was found to be 0.176. Consider AAAAAAGC, for which the “PBM E-score” value was -0.04. For the sequence CCGATGGC, the “PBM E-score” value was -0.0788. For CACTATCC, the “PBM E-score” value is 0.00958.

Regarding GATCGGCA, the “PBM E-score” value was -0.0799. Turning to GATTGCTA, the “PBM E-score” value is -0.0568.

With AGCCCTTG, the “PBM E-score” value was -0.196.

Regarding TAGATCGA, the “PBM E-score” value was found to be 0.0888. To GGGAGAAC belongs -0.184. To TCAGTTCA belongs 0.055; to ATTGTTTG, 0.168. To AACCCTGT belongs -0.0871; to GTGTGAAC, -0.0377; to TGGGCACA, -0.0569. Take ATGGGCAA: the “PBM E-score” value was 0.0649. On to AAGGTAAC, for which the “PBM E-score” value worked out at 0.189.

Consider ACTTGCAA, for which the “PBM E-score” value is 0.0582. Regarding AGGATACT, the “PBM E-score” value was -0.135.

As to ACGCATTA, the “PBM E-score” value was determined as 0.0564. As for AGAATAGA, the “PBM E-score” value worked out at 0.0383. To ACCAGCAT belongs 0.0225. The value for ATTTAGGG was 0.0134. To ACATCAGG belongs 0.0572; to CCGTCACC, -0.234; to AGAGGGCT, -0.241. For ATGCCATA, the “PBM E-score” value is 0.16. To AACGTTCT belongs 0.0939; to ACGGAAGT, 0.179; to CGGATGTC, 0.0822.

For the sequence ACCAAGGT, the “PBM E-score” value was -0.0848. To TCTGTAAA belongs -0.0149; to ACCATCCT, -0.0592; to AAATATCG, 0.164.

For CGCTGGGA, the “PBM E-score” value was -0.244. To AGTGTTGG belongs 0.147; to CGAGTACG, -0.119; to CAACTACG, 0.032.

With CGTTGTTA, the “PBM E-score” value is 0.091. For the sequence GAGGCGCC, the “PBM E-score” value was -0.119. To TAGGAAGA belongs -0.197; to CACCCCAC, 0.171; to CGCACGCA, -0.0549. To GTATTTCA belongs 0.0836; to CAGGGACA, -0.0907. To AGCTCGGA belongs -0.0324; to ACGGATTC, 0.0755; to TATGCGGA, 0.148. As to AAGTCTCT, the “PBM E-score” value is -0.249. The value for AGACGGGC was -0.155; that for ATCTACAG was 0.132. In the case of CAATGTGA, the “PBM E-score” value was found to be 0.117.

On to GAGCTCAC, for which the “PBM E-score” value is -0.0667. The value for GCTGGCCA was -0.135; that for CCTACTTA was 0.0194; that for ACAGACAA was 0.28.

Consider CAGACACA, for which the “PBM E-score” value is -0.0486.

Turning to AGTTGCTA, the “PBM E-score” value came out at 0.174.

With CACGGGCG, the “PBM E-score” value is -0.108. To CTAGGGTC belongs -0.224.

Take AGGCACAG: the “PBM E-score” value was -0.196. For ATCGGTAA, the “PBM E-score” value came out at 0.107. To AGCCTTGA belongs -0.0832.

As for CGAATAAA, the “PBM E-score” value stood at 0.0982. Take CGAGGCAA: the “PBM E-score” value worked out at 0.0711.
